“Also recorded” adds a separate entry of the source. At least one peptide structure holds a part that was inferred or is arguable (an end, a ring closure or a residue). Positions of bridges follow the written chain, without caps; N, C: chain ends. Residues, ends and D or L forms follow the SMILES beside them.
Columns and labels:
[1] = test system: chick embryonic chorioallantoic membranes; assay: Chick chorioallantoic membrane angiogenesis assay; format: in vivo; details: for Percent Inhibition of Angiogenesis: 24 hours; for inhibition of angiogenesis (in words): 3, 17 and 33 μg/mesh
Experimental: Another cell adhesion assay evaluates the ability of a modulating agent to block angiogenesis (the growth of blood vessels from pre-existing blood vessels). This ability may be assayed using the chick chorioallantoic membrane assay described by Iruela-Arispe et al., Molecular Biology of the Cell 6:327-343, 1995. Briefly, a modulating agent may be embedded in a mesh composed of vitrogen at one or more concentrations (e.g., ranging from about 1 to 100 μg/mesh). The mesh(es) may then be applied to chick chorioallantoic membranes. After 24 hours, the effect of the peptide may be determined using computer assisted morphometric analysis. A modulating agent should inhibit angiogenesis by at least 25% at a concentration of 33 μg/mesh.
The chick chorioallantoic membrane assay was used to assess the effects of cyclic peptides on angiogenesis (Iruela-Arispe et al., Molecular Biology of the Cell 6:327-343, 1995). Cyclic peptides were embedded in a mesh composed of vitrogen at concentrations of 3, 17, and 33 μg/mesh. The meshes were then applied to 12-day-old chick embryonic chorioallantoic membranes. After 24 hours, the effects of the peptides on angiogenesis were assessed by computer assisted morphometric analysis.

[2] = target: T1, chick N-cadherin (Gallus gallus, UniProt P10288); assay: Neurite outgrowth of rat cerebellar neurons on N-cadherin expressing 3T3 monolayers (Example 15); format: cell-based; details: 250 μg/mL (Table 8)
T1 construct: expressed in transfected cells; host or cells: 3T3 fibroblasts (monolayer); rat post-natal day 2-3 cerebellar neurons plated on top
T1 sequence (P10288 165-912): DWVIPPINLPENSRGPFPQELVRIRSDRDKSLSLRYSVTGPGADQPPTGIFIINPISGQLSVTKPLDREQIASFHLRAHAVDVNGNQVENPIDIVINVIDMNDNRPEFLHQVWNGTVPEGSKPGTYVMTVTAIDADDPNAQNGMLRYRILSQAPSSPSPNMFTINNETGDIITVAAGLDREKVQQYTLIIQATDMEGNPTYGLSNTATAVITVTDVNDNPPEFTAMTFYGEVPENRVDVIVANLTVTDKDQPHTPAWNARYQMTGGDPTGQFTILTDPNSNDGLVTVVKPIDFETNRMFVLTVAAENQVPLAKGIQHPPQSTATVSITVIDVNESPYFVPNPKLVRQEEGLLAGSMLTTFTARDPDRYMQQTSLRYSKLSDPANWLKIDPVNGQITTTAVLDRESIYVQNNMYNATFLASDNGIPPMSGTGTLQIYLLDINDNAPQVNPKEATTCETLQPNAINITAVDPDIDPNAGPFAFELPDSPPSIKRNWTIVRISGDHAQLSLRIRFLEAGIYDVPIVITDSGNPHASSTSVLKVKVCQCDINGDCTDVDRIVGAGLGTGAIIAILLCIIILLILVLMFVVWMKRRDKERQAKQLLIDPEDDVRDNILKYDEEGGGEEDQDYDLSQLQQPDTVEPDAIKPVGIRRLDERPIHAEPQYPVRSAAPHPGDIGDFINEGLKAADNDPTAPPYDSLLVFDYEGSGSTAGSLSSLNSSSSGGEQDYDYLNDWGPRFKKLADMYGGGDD
Experimental: Cell culture and neurite outgrowth assays. Co-cultures of cerebellar neurons on monolayers of control 3T3 cells and monolayers of transfected 3T3 cells that express physiological levels of chick N-cadherin or human L1 were established as previously described (Williams et al., Neuron 13:583-594, 1994). In brief, 80,000 3T3 cells (control and transfected) were plated into individual chambers of an eight-chamber tissue culture slide coated with polylysine and fibronectin and cultured in DMEM/10% FCS. After 24 hours, when confluent monolayers had formed, the medium was removed and 3000 cerebellar neurons isolated from post-natal day 2-3 rats were plated into each well in SATO media (Doherty et al., Nature 343:464-466, 1990) supplemented with 2% FCS. All of the test peptides were added immediately before the neurons as a 2× stock prepared in SATO/2% FCS. The co-cultures were maintained for 16-18 hours, at which time they were fixed and immunostained for GAP-43 which is present only in the neurons and delineates the neuritic processes. The mean length of the longest neurite per cell was measured for 150-200 neurons sampled in replicate cultures as previously described (Williams et al., Neuron 13:583-594, 1994). […] Dose-response curves were evaluated and the EC50 values determined.

[3] = test system: Bovine pulmonary artery endothelial cells; assay: Disruption of bovine endothelial cell adhesion; format: cell-based; details: 500 μg/ml, 30 minutes; listed as N—Ac-CSHAVSSC-NH2
Experimental: For use within one such assay, bovine pulmonary artery endothelial cells may be harvested by sterile ablation and digestion in 0.1% collagenase (type II; Worthington Enzymes, Freehold, N.J.). Cells may be maintained in Dulbecco's minimum essential medium supplemented with 10% fetal calf serum and 1% antibiotic-antimycotic at 37° C. in 7% CO2 in air. Cultures may be passaged weekly in trypsin-EDTA and seeded onto tissue culture plastic at 20,000 cells/cm^2. Endothelial cultures may be used at 1 week in culture, which is approximately 3 days after culture confluency is established. The cells may be seeded onto coverslips and treated (e.g., for 30 minutes) with modulating agent or a control compound at, for example, 500 μg/ml and then fixed with 1% paraformaldehyde. As noted above, disruption of cell adhesion may be determined visually within 24 hours, by observing retraction of the cells from one another. This assay evaluates the effect of a modulating agent on N-cadherin mediated cell adhesion.
Bovine pulmonary artery endothelial cells were harvested by sterile ablation and digestion in 0.1% collagenase (type II; Worthington Enzymes, Freehold, N.J.). Cells were maintained in Dulbecco's minimum essential medium (Clonetics, San Diego, Calif.) supplemented with 10% fetal calf serum (Atlantic Biologicals, Nor cross, Ga.) and 1% antibiotic-antimycotic at 37° C. in 7% CO2 in air. […]

[4] = test system: Madin Darby canine kidney (MDCK) cells; format: cell-based; details: 18 hours
Experimental: Yet another assay evaluates the effect of a modulating agent on the electrical resistance across a monolayer of cells. For example, Madin Darby canine kidney (MDCK) cells can be exposed to the modulating agent dissolved in medium (e.g., at a final concentration of 0.5 mg/ml for a period of 24 hours). The effect on electrical resistance can be measured using standard techniques. This assay evaluates the effect of a modulating agent on tight junction formation in epithelial cells. In general, the presence of 500 μg/mL modulating agent should result in a statistically significant decrease in electrical resistance after 24 hours.
Madin Darby canine kidney (MDCK) cells were plated in Millicells (Millipore, Bedford, Mass.), at a density of 300,000 cells per Millicell, and cultured in Dulbecco's Modified Eagle Medium (DMEM; Sigma, St. Louis, Mo.) containing 5% fetal calf serum (Sigma, St. Louis, Mo.) until monolayers formed. Monolayers were exposed to the modulating agent dissolved in medium. The electrical resistance was measured using the EVOM device (World Precision Instruments, Sarasota, Fla.). At the time of measurement, fresh medium, with or without the modulating agent, may be added to the Millicells.

[5] = test system: OVCAR-3; assay: Disruption of OVCAR-3 ovarian cancer cell adhesion; format: cell-based, human
Experimental: The human ovarian cancer cell line OVCAR-3, which expresses E-cadherin, was used in these experiments. Cells were cultured in RPMI supplemented with insulin and containing 20% FCS. Cells were grown in T-250 culture flasks and maintained by periodic subculturing. Cells were harvested from flasks and seeded in individual wells of 96-well culture dishes (surface area of each well was 0.32 cm^2) at a density of 50,000 cells per well in 0.1 ml media containing the cyclic peptides (at concentrations of 1, 0.1, or 0.01 mg/ml). Media control wells were also established. Cultures were evaluated periodically by microscopic examination under both bright field and phase contrast conditions, and were maintained for 48 hours.

[6] = 3 μg/mesh, absence (−) of 0.01 mM VEGF
[7] = 3 μg/mesh, presence (+) of 0.01 mM VEGF
[8] = 17 μg/mesh, absence (−) of 0.01 mM VEGF
[9] = 17 μg/mesh, presence (+) of 0.01 mM VEGF
[10] = 33 μg/mesh, absence (−) of 0.01 mM VEGF
[11] = 33 μg/mesh, presence (+) of 0.01 mM VEGF

SMILES: CC(=O)N[C@H]1CSSC[C@@H](C(N)=O)NC(=O)[C@H](CO)NC(=O)[C@H](CO)NC(=O)[C@H](C(C)C)NC(=O)[C@H](C)NC(=O)[C@H](Cc2c[nH]cn2)NC(=O)[C@H](CO)NC1=O (Ac-CSHAVSSC-NH2; disulfide 1-8 (inferred))
- Percent Inhibition of Angiogenesis [1, 6]: 1%
- Percent Inhibition of Angiogenesis [1, 7]: −3%^
- Percent Inhibition of Angiogenesis [1, 8]: −3%^
- Percent Inhibition of Angiogenesis [1, 9]: 12%
- Percent Inhibition of Angiogenesis [1, 10]: 17%
- Percent Inhibition of Angiogenesis [1, 11]: 7%
- inhibition of angiogenesis (in words) [1]: relatively inactive
- reduction in inhibitory activity on flanking HAV with E-cadherin amino acids [2]: complete
- effect on endothelial cell monolayer / morphology [3]: endothelial cells retracted from one another and round up; also recorded: disrupted the endothelial cell monolayer and caused the cells to retract from one another
- EC50, decrease of electrical resistance across MDCK cell monolayer [4]: INACTIVE

SMILES: CC(=O)N[C@H]1CSSC[C@@H](C(N)=O)NC(=O)[C@H](CO)NC(=O)[C@H](C(C)C)NC(=O)[C@H](C)NC(=O)[C@H](Cc2c[nH]cn2)NC1=O [N—Ac—CHAVSC—NH2, N-Ac-Cys-His-Ala-Val-Ser-Cys-NH2] (Ac-CHAVSC-NH2; disulfide 1-6 (inferred))
- Percent Inhibition of Angiogenesis [1, 6]: 11%
- Percent Inhibition of Angiogenesis [1, 7]: 17%
- Percent Inhibition of Angiogenesis [1, 8]: 12%
- Percent Inhibition of Angiogenesis [1, 9]: 16%
- Percent Inhibition of Angiogenesis [1, 10]: 17%
- Percent Inhibition of Angiogenesis [1, 11]: 19%
- inhibition of angiogenesis (in words) [1]: relatively inactive
- reduction in inhibitory activity on flanking HAV with E-cadherin amino acids [2]: complete
- OVCAR3 cell morphology ([5]; 100 μg/ml, 24 hours): cells retract form one another
- disruption of OVCAR-3 adhesion ([5]; 1, 0.1, or 0.01 mg/ml, up to 48 hours): disrupted OVCAR-3 adhesion
- EC50, decrease of electrical resistance across MDCK cell monolayer [4]: INACTIVE

Reference: patent publication US20040106545A1, “Compounds and methods for modulating cell adhesion” (priority 1996, published 2004)
